Reference: paper PMC8269334
No constants are given. Whether binding was seen depends on the method and setting. In cells and extracts the contact can be indirect. Some results given as binding are weak or reduced against the parent protein; the word gives no strength.

Amino acid sequences for entries named in this document (tags omitted). A change or cut given only in a name is not applied to a line headed by its entry. Residues count along the entry.
UniProt Q13177: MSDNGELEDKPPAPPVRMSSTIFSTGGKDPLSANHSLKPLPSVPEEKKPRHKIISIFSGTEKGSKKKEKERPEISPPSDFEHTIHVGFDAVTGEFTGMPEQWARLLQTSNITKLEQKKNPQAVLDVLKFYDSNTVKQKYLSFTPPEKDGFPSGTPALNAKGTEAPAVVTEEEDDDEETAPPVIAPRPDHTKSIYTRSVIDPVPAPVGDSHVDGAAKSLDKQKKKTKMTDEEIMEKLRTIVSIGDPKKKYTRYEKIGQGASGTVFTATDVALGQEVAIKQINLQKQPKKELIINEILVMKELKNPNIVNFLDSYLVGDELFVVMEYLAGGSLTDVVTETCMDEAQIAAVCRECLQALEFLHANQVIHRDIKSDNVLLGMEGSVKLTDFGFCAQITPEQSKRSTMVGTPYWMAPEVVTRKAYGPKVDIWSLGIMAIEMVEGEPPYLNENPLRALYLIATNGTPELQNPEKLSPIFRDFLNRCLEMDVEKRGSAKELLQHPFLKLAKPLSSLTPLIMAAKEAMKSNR
UniProt P06748: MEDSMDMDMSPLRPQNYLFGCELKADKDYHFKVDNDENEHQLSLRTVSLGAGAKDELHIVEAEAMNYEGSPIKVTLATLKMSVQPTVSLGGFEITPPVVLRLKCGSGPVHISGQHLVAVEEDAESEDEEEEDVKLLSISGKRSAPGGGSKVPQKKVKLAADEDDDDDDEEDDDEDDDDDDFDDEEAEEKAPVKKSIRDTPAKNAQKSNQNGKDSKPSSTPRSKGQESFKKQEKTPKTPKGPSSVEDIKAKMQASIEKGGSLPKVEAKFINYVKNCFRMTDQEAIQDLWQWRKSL
eGFP_Δ117NPMwt: residues 118-294 of P06748

Tests used:
PAK2_eGFP = PAK2_eGFP (UniProt Q13177); test: co-IP; GFP-Trap_A beads on lysates of HEK-293T cells transfected with one eGFP-tagged construct; lysis in 10 mM Tris/Cl pH 7.5, 150 mM NaCl, 0.5 mM EDTA, 0.5% NP-40; 1 h at 4 °C; co-precipitated endogenous proteins detected by immunoblotting
eGFP_Δ117NPMwt (human) = eGFP_Δ117NPMwt (human) (UniProt P06748); test: as above

binding (PAK2_eGFP): no binding | binding (eGFP_Δ117NPMwt (human)): binds
Substance: endogenous NPM (HEK-293T) (from UniProt P06748 1-294)
